Assay results reported in patent publication US12281162 (LANOVA MEDICINES DEVELOPMENT, dated 2025).
These are yes or no findings as the source states them, for the method shown. Some entries that bind do so weakly or less than the wild type.

The chains behind the UniProt entries cited, without tags or fusion partners.
UniProt Q9NZD1: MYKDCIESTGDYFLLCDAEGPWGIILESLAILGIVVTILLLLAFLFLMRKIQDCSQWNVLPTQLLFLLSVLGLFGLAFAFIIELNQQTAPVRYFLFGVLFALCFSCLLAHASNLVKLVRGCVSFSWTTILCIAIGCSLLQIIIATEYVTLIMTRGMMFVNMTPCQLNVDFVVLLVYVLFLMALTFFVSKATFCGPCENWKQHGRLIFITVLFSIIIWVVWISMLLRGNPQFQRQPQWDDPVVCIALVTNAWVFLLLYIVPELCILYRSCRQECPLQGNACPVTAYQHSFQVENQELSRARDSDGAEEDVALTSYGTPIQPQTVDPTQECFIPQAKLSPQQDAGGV

Assays:
[1] = biological target: human G-protein-coupled receptor family C group 5 member D (GPRC5D) (human) (UniProt Q9NZD1); experiment: FACS, CHO-K1/human GPRC5D
[2] = biological target: human G-protein-coupled receptor family C group 5 member D (GPRC5D) (human) (UniProt Q9NZD1); experiment: FACS, CHO-K1/GPRC5D
[3] = biological target: human G-protein-coupled receptor family C group 5 member D (GPRC5D) (human) (UniProt Q9NZD1); experiment: FACS, NCI-H929 cells

Measured: binding

B1: 58-H1L1 (antibody, V domains shown)
VH: QVQLVQSGAEVKKPGASVKVSCKASGYSFTGYYIHWVRQAPGQGLEWMGYISSYNAATSFNQKFKGRVTMTRDTSTSTVYMELSSLRSEDTAVYYCARTELRGPWFAYWGQGTLVTVSS
VL: DIQMTQSPSSLSASVGDRVTITCSASSSVSYMNWYQQKPGKAPKLLIYDTSKLASGVPSRFSGSGSGTDFTLTISSLQPEDFATYYCQQWSNNPLTFGQGTKLEIK
notes: humanized 58F9G10, VH v1 x VL v1
binds: all assays above

B2: 58-H3L1 (antibody, V domains shown)
VH: QVQLVQSGAEVKKPGASVKVSCKASGYSFTGYYIHWVKQAPGQGLEWIGYISSYNAATSFNQKFKGRVTFTVDTSTSTVYMEFSSLRSEDTAVYYCARTELRGPWFAYWGQGTLVTVSS
VL: DIQMTQSPSSLSASVGDRVTITCSASSSVSYMNWYQQKPGKAPKLLIYDTSKLASGVPSRFSGSGSGTDFTLTISSLQPEDFATYYCQQWSNNPLTFGQGTKLEIK
notes: humanized 58F9G10, VH v3 x VL v1
binds: all assays above

B3: 34-H1L1 (antibody, V domains shown)
VH: EVQLVESGGGLVKPGGSLRLSCAASGFTFSSYGMSWVRQAPGKGLEWVSTISSGGSYTYYPDSVKGRFTISRDNAKNSLYLQMNSLRAEDTAVYYCARQGGDAMDYWGQGTLVTVSS
VL: DIQMTQSPSSLSASVGDRVTITCRASQSINNNLHWYQQKPGKAPKLLIYYASQSISGVPSRFSGSGSGTDFTLTISSLQPEDFATYYCQQSNSRLTFGGGTKVEIK
notes: humanized 34D3H1, VH v1 x VL v1
binds: all assays above

B4: 37-H1L1 (antibody, V domains shown)
VH: EVQLVESGGGLVQPGGSLRLSCAASGFTFSDYWMNWVRQAPGKGLEWVAEIRLKSNNYATHYAESVKGRFTISRDNAKNSLYLQMNSLRAEDTAVYYCARPLLWFRRYYAMDYWGQGTLVTVSS
VL: DIQMTQSPSSLSASVGDRVTITCSASQGISNYLNWYQQKPGKAPKLLIYYTSSLHSGVPSRFSGSGSGTDFTLTISSLQPEDFATYYCQQYSKLPFTFGQGTKLEIK
notes: humanized 37B9C4, VH v1 x VL v1; also called 37B9C4 (H1L1)
binds: all assays above
